For at least one compound, name, drawing or mass did not settle the structure.
Molecular target: T1, DmSK (Drosophila melanogaster, UniProt Q7KVW5)
T1 construct: The resulting construct contains the SK CDS downstream of the CMV promoter; expressed in transfected cells; host or cells: CHO-K1 (pool 3 / clone SK3 and subclones)
Experiment: DmSK CHO whole-cell patch clamp
Assay type: cell-based
Settings: 70 uM

SMILES: CCCNCC(O)COc1ccccc1C(=O)CCc1ccccc1 (stereo not shown) [Propafenone]
- block of DmSK-A2 channels: completely blocked

Reference: patent publication US9029080B2, “Screening assay for insecticides” (priority 2008, dated 2015)
